At least one peptide structure holds a part that was inferred or is arguable (an end, a ring closure or a residue). Where no end group is shown, it is not given here.
What was measured:
[1] = system: Escherichia coli (E. coli) UB1005 (F—, nalA37, metB1); test: Broth dilution MIC, Escherichia coli; assay type: cell-based; conditions: Mueller Hinton medium, 37° C., 12-15 h
[2] = system: Mycobacterium tuberculosis H37Rv strain; test: MIC determination, Mycobacterium tuberculosis; assay type: cell-based; conditions: M. tuberculosis H37Rv

| Sequence | MIC [1] [μmol I^−1] | MIC [2] [μmol I^−1] |
| --- | --- | --- |
| WRKFWKYLK [WRKFWKYLK (SEQ ID NO.:2), Trp-Arg-Lys-Phe-Trp-Lys-Tyr-Leu-Lys] | 0.8 | – |
| WKWLKKWIK [WKWLKKWIK (SEQ ID NO.:1), Trp-Lys-Trp-Leu-Lys-Lys-Trp-Ile-Lys] | – | 1.1 |
